Laboratory results as given in the supplement of paper PMC7877785.
± gives the uncertainty stated by the source. Many of these values have a large error.

Assay: self-splicing fitness, log relative to wild type (ln ratio); higher = more splicing; Tetrahymena group I intron in knt gene, E. coli kanamycin selection, DiMSum; sequences stand for … in CUCUCU…GGAGGGAAAAGUUAUCAGGCAUGCACCUGGUAGCUAGUCUUUAAACCAAUAGAUUGCAUCGGUUUAAAAGGCAAGACCGUCAAAUUGCGGGAAAGGGGUCAACAGCCGUUCAGUACCAAGUCUCAGGGGAAACUUUGAGAUGGCCUUGCAAAGGGUAUGGUAAUAAGCUGACGGACAUGGUCCUAACCACGCAGCCAAGUCCUAAGUCAACAGAUCUUCUGUUGAUAUGGAUGCAGUUCACAGACUAAAUGUCGGUCGGGGAAGAUGUAUUCUUCUCAUAAGAUAUAGUCGGACCUCUCCUUAAUGGGAGCUAGCGGAUGAAGUGAUGCAACACUGGAGCCGCUGGGAACUAAUUUGUAUGCGAAAGUAUAUUGAUUAGUUUUGGAGUACUCGUGGUCG
In short: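 The eight P1ex-region nucleotides of an intron in the knt kanamycin-resistance gene on pET-22b(+) were all randomised and the library put into E. coli BL21(DE3). Six replicate transformations were grown overnight at 37°C or 30°C on LB agar with or without 25 μg/mL kanamycin, together with 100 μg/mL carbenicillin, 50 μM IPTG and 0.2% rhamnose. Colonies were pooled and amplicon-sequenced on an Illumina HiSeq 2500. Fitness from DiMSum is the error-weighted combination of wild-type-normalised replicate fold changes, kanamycin over none.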

UCGGAGCAAUAUUACGAUAA
self-splicing fitness (ln) (30 °C): -2.49 ± 0.57 | self-splicing fitness (ln) (37 °C): -1.78 ± 0.82

UGGGAGCAAUAUUACGUAGC
self-splicing fitness (ln) (37 °C): -3.17 ± 0.61

GCCCAGCAAUAUUACGAGGU
self-splicing fitness (ln) (30 °C): -3.81 ± 0.2 | self-splicing fitness (ln) (37 °C): -3.07 ± 0.22

AGGUAGCAAUAUUACGCACU
self-splicing fitness (ln) (30 °C): -1.32 ± 0.017 | self-splicing fitness (ln) (37 °C): -0.862 ± 0.035

CGGGAGCAAUAUUACGACCU
self-splicing fitness (ln) (30 °C): -0.87 ± 0.14 | self-splicing fitness (ln) (37 °C): -0.864 ± 0.18

CAUUAGCAAUAUUACGUCCC
self-splicing fitness (ln) (37 °C): -1.85 ± 0.66

GGUUAGCAAUAUUACGGGAU
self-splicing fitness (ln) (30 °C): -3.13 ± 0.26 | self-splicing fitness (ln) (37 °C): -1.4 ± 0.24

CUAUAGCAAUAUUACGCCAU
self-splicing fitness (ln) (30 °C): -2.66 ± 0.39 | self-splicing fitness (ln) (37 °C): -2.45 ± 0.37

ACUUAGCAAUAUUACGAAGC
self-splicing fitness (ln) (30 °C): -3.14 ± 0.61

UCGGAGCAAUAUUACGACAG
self-splicing fitness (ln) (30 °C): -4.31 ± 0.52 | self-splicing fitness (ln) (37 °C): -2.05 ± 0.51

UGCGAGCAAUAUUACGAAAG
self-splicing fitness (ln) (30 °C): -2.87 ± 0.29 | self-splicing fitness (ln) (37 °C): -2.87 ± 0.43

AGGUAGCAAUAUUACGCAAU
self-splicing fitness (ln) (30 °C): -1.959 ± 0.017 | self-splicing fitness (ln) (37 °C): -1.03 ± 0.034

UGCAAGCAAUAUUACGCUAC
self-splicing fitness (ln) (37 °C): -2.75 ± 0.76

GGGGAGCAAUAUUACGCCAG
self-splicing fitness (ln) (37 °C): -3.16 ± 1

UCGGAGCAAUAUUACGCCCG
self-splicing fitness (ln) (30 °C): -1.39 ± 0.63 | self-splicing fitness (ln) (37 °C): -0.927 ± 1.2

UAGGAGCAAUAUUACGCAAA
self-splicing fitness (ln) (37 °C): -2.54 ± 0.54

GUGUAGCAAUAUUACGAGGC
self-splicing fitness (ln) (30 °C): -2.53 ± 0.77 | self-splicing fitness (ln) (37 °C): -1.78 ± 0.69

CGGAAGCAAUAUUACGCACG
self-splicing fitness (ln) (30 °C): -3.89 ± 1

AAGGAGCAAUAUUACGAGAC
self-splicing fitness (ln) (37 °C): -3.39 ± 0.73

GUUGAGCAAUAUUACGAAGA
self-splicing fitness (ln) (30 °C): -3.02 ± 0.62

UGUGAGCAAUAUUACGCGUC
self-splicing fitness (ln) (37 °C): -3.05 ± 0.61

CAUGAGCAAUAUUACGACAC
self-splicing fitness (ln) (30 °C): -3.45 ± 0.73

CGCAAGCAAUAUUACGGUCC
self-splicing fitness (ln) (30 °C): -1.07 ± 0.076 | self-splicing fitness (ln) (37 °C): -0.628 ± 0.12

UGCGAGCAAUAUUACGCAGC
self-splicing fitness (ln) (30 °C): -4.38 ± 0.51

GGGGAGCAAUAUUACGUAUG
self-splicing fitness (ln) (30 °C): -4.77 ± 0.59

GUAUAGCAAUAUUACGAAAA
self-splicing fitness (ln) (30 °C): -1.8 ± 0.56 | self-splicing fitness (ln) (37 °C): -1.18 ± 0.22

ACGGAGCAAUAUUACGACAA
self-splicing fitness (ln) (30 °C): -2.36 ± 1.2

CGUCAGCAAUAUUACGAAAA
self-splicing fitness (ln) (30 °C): -3.68 ± 0.6 | self-splicing fitness (ln) (37 °C): -1.47 ± 0.55

UCGUAGCAAUAUUACGCUGC
self-splicing fitness (ln) (30 °C): -3.59 ± 0.52

AUCGAGCAAUAUUACGUCAC
self-splicing fitness (ln) (30 °C): -2.85 ± 0.64

UAAUAGCAAUAUUACGCCAA
self-splicing fitness (ln) (30 °C): -2.77 ± 0.55

CCGGAGCAAUAUUACGUACC
self-splicing fitness (ln) (30 °C): -1.67 ± 0.61

AGAUAGCAAUAUUACGUUGC
self-splicing fitness (ln) (30 °C): -4.33 ± 1 | self-splicing fitness (ln) (37 °C): -2.24 ± 0.78

AUUCAGCAAUAUUACGUACC
self-splicing fitness (ln) (30 °C): -0.843 ± 0.061 | self-splicing fitness (ln) (37 °C): -0.514 ± 0.089

UAGGAGCAAUAUUACGGUCG
self-splicing fitness (ln) (30 °C): -2.16 ± 0.61 | self-splicing fitness (ln) (37 °C): -0.623 ± 0.54

AUCGAGCAAUAUUACGAAUG
self-splicing fitness (ln) (30 °C): -4.36 ± 1

UCGGAGCAAUAUUACGAAAC
self-splicing fitness (ln) (37 °C): -1.86 ± 0.52

UUGAAGCAAUAUUACGCCCC
self-splicing fitness (ln) (30 °C): -1.27 ± 1.4 | self-splicing fitness (ln) (37 °C): 0.015 ± 0.59

UUAGAGCAAUAUUACGCUCG
self-splicing fitness (ln) (37 °C): -0.26 ± 0.54

GCAAAGCAAUAUUACGCCAG
self-splicing fitness (ln) (30 °C): -2.38 ± 0.15 | self-splicing fitness (ln) (37 °C): -3.19 ± 0.29

GGGCAGCAAUAUUACGGGGG
self-splicing fitness (ln) (37 °C): -2.9 ± 0.61

GUUGAGCAAUAUUACGAUCG
self-splicing fitness (ln) (37 °C): -1.74 ± 0.68

CAUGAGCAAUAUUACGAAGU
self-splicing fitness (ln) (37 °C): -3.26 ± 0.73

CAUAAGCAAUAUUACGGGCC
self-splicing fitness (ln) (30 °C): -3.94 ± 0.6

GGACAGCAAUAUUACGCUGC
self-splicing fitness (ln) (37 °C): -2.48 ± 0.76

CACGAGCAAUAUUACGCACC
self-splicing fitness (ln) (30 °C): -1.33 ± 0.51

UACGAGCAAUAUUACGCUGC
self-splicing fitness (ln) (30 °C): -3.07 ± 1.1

CGUGAGCAAUAUUACGCUGA
self-splicing fitness (ln) (30 °C): -2 ± 0.53

CUACAGCAAUAUUACGCCUU
self-splicing fitness (ln) (30 °C): -2.27 ± 0.2 | self-splicing fitness (ln) (37 °C): -1.4 ± 0.31

CGGGAGCAAUAUUACGGCAU
self-splicing fitness (ln) (30 °C): -6.77 ± 1

UUGAAGCAAUAUUACGGUCG
self-splicing fitness (ln) (30 °C): 0.0283 ± 0.088 | self-splicing fitness (ln) (37 °C): 0.283 ± 0.1

CAGCAGCAAUAUUACGAGUC
self-splicing fitness (ln) (30 °C): -4.41 ± 0.29 | self-splicing fitness (ln) (37 °C): -2.24 ± 0.14

CUGUAGCAAUAUUACGAUUU
self-splicing fitness (ln) (30 °C): -3.44 ± 0.6

UGGGAGCAAUAUUACGCUCU
self-splicing fitness (ln) (30 °C): -3.69 ± 0.62 | self-splicing fitness (ln) (37 °C): -2.65 ± 0.61

GUCGAGCAAUAUUACGCUUG
self-splicing fitness (ln) (30 °C): -4 ± 1

GUUAAGCAAUAUUACGCGCG
self-splicing fitness (ln) (30 °C): -0.983 ± 0.09 | self-splicing fitness (ln) (37 °C): 0.0623 ± 0.14

CAGUAGCAAUAUUACGAUCC
self-splicing fitness (ln) (30 °C): -3.52 ± 0.75 | self-splicing fitness (ln) (37 °C): -2.66 ± 0.53

AUGGAGCAAUAUUACGCCCC
self-splicing fitness (ln) (30 °C): -4.04 ± 1.1 | self-splicing fitness (ln) (37 °C): -1.69 ± 1.2

GAGAAGCAAUAUUACGGAGG
self-splicing fitness (ln) (30 °C): -2.75 ± 0.64
